Reference: PubChem BioAssay AID652259 (Drosophila RNAi Screening Center, 2013)
In all, the deposit lists about 22,000 reagents; below is a random part of those with a known target gene and a result. Over the whole deposit, 233 (1.1%) were called active. 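Light values are raw, unnormalised plate reads; the ratio scores behind the reporter calls were not deposited.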 Entries without a mark were called inactive. Not stated in the record: the amount of reagent, the time to read-out, the dose of the treatment.

Screen: 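Identify new Wingless signalling regulators in fly cells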 (primary screen)
Cell system: Drosophila clone 8 imaginal disc epithelial cells
Reagent: long dsRNA against Drosophila genes
Challenge: pathway stimulated by co-transfected Wingless expression plasmid
Measurement: 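Firefly luciferase from a tcf-site Wingless reporter, measured alongside co-transfected Renilla luciferase that tracks transfection; pathway stimulated by a Wingless plasmid; the firefly-to-Renilla ratio is not deposited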
Direction: firefly reporter light: higher = more Wg reporter light, before normalisation; Renilla control light: higher = more transfected or surviving cells
Call rule: 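Strong candidates differ from their plate mean by at least two out of four per-plate statistical tests; weak candidates meet just one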
Calls: active = candidate regulator (raises or lowers reporter); inactive = not a candidate

target	DRSC id	reporter change call, replicate 1	firefly reporter light, replicate 1	firefly reporter light, replicate 2	Renilla control light, replicate 1	Renilla control light, replicate 2
Alp7 (Alkaline phosphatase 7)	DRSC04355		1975	6973	505	2064
CG42807	DRSC06966		8416		2648	
CR42545 (pseudo)	DRSC03709		4232	7852	1323	2976
Ir52a (Ionotropic receptor 52a)	DRSC06262		6429		2122	
CG14143	DRSC10146		3997		1765	
Hr38 (Hormone receptor-like in 38)	DRSC03345	Wg reporter activity raised (active)	5984	13363	520	1666
HipHop (HP1-HOAP-interacting protein)	DRSC10734		5076		1859	
CG12206	DRSC17828		24860		14704	
ftz-f1 (ftz transcription factor 1)	DRSC11347		9265		2464	
CG43759	DRSC19464		2311	8374	1408	3028
CG43759	DRSC19543		22416		8727	
IleRS (Isoleucyl-tRNA synthetase)	DRSC11667		6707		2825	
CG10936	DRSC05669		23002		14506	
CG10936	DRSC05670		20114		11011	
CG10936	DRSC06018		4470		2050	
stck (steamer duck)	DRSC17070		15595		4118	
mRpS5 (mitochondrial ribosomal protein S5)	DRSC21380		1.03e6	7.14e5	8.03e5	4.63e5

Records above marked active (1):
target	DRSC id	reporter change call, replicate 1	firefly reporter light, replicate 1	firefly reporter light, replicate 2	Renilla control light, replicate 1	Renilla control light, replicate 2
Hr38 (Hormone receptor-like in 38)	DRSC03345	Wg reporter activity raised (active)	5984	13363	520	1666

The results go on.
target	DRSC id	reporter change call, replicate 1	firefly reporter light, replicate 1	firefly reporter light, replicate 2	Renilla control light, replicate 1	Renilla control light, replicate 2
Ntmt (N-terminal methyltransferase)	DRSC06624		4003	8656	1255	4272
FoxL1 (Forkhead box L1)	DRSC08717		8003		3194	
Hel89B (Helicase 89B)	DRSC16700		4240	7325	1376	2707
Hel89B (Helicase 89B)	DRSC21575		8.67e5	9.29e5	1.56e5	1.50e5
Ir25a (Ionotropic receptor 25a)	DRSC00462		3200	6224	1032	2297
Nipsnap	DRSC20169		1866	5520	961	2538
PKD (Protein Kinase D)	DRSC16200		14956		3680	
wdp (windpipe)	DRSC04367		7184		2417	
CG4836	DRSC15659		3074	12387	1456	2752
CG4836	DRSC22066		5.83e5	5.49e5	2.28e5	2.77e5
AOX4 (Aldehyde oxidase 4)	DRSC15337		13248		2423	
a10 (antennal protein 10)	DRSC11319		8804		3568	
